Measurements from US11717661B2, “Methods and systems for ultrasound assisted delivery of a medicant to tissue” (Guided Therapy Systems, LLC, priority 2015, dated 2023).

Test system: human skin
Details: human forearm; 10 MHz, 25 ms, 0.5 J; areas without lidocaine were irritated, red, and welt-like

**Q.** With CCN(CC)CC(=O)Nc1c(C)cccc1C [lidocaine] as the compound, how does the “appearance of treatment areas after the application of the ultrasound energy” value read?
**A.** smooth and contained barely visible remnants
